Measurements reported in PMC8274477.
These are yes or no findings as the source states them, for the method shown. Some binding calls cover weakened binding; strength is not graded here.

How the values were obtained:
Assay in all cases: peptide or protein array; HuProt human proteome microarray; 5 ug/5 ml biotin-labelled LUBAC or OTULIN in solution, 1 h at room temperature; Cy5-streptavidin, scanned at 635 nm; BSA as negative control; hits: Z-score >= 3 and I_(Mean_Ratio) >= 1.4; both purified
CSRP1 (human) = molecular target: T1, CSRP1 (human) (UniProt P21291)
T1 sequence: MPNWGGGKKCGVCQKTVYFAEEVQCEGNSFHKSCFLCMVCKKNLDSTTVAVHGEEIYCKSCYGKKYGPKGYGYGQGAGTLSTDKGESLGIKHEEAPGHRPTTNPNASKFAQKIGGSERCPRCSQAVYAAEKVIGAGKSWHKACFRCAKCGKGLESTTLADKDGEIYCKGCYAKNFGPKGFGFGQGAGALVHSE

QARS (human) = molecular target: T2, QARS (human) (UniProt P47897)
T2 sequence: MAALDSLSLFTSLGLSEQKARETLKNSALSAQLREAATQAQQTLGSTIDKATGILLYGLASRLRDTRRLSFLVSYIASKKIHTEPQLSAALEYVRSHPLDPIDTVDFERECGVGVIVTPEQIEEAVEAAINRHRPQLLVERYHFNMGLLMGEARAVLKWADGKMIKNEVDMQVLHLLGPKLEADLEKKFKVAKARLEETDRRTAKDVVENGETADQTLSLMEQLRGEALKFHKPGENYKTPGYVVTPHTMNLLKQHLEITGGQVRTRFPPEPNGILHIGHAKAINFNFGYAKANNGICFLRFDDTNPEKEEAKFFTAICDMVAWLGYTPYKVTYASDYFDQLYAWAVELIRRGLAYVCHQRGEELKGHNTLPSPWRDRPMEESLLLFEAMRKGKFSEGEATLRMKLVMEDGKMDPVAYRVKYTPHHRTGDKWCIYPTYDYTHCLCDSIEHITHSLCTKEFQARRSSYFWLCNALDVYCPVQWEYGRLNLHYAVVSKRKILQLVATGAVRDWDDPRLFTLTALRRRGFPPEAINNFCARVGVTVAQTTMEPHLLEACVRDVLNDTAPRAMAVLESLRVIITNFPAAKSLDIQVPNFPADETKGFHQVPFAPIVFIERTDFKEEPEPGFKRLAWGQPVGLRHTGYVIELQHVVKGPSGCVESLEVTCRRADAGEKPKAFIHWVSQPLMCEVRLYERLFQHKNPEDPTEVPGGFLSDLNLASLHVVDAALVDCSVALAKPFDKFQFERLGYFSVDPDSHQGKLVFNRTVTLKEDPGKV

MIF (human) = molecular target: T3, MIF (human) (UniProt P14174)
T3 sequence: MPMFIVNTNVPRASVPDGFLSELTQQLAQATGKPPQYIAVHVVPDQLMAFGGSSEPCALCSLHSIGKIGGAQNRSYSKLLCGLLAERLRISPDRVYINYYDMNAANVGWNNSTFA

TBXAS1 (human) = molecular target: T4, TBXAS1 (human) (UniProt P24557)
T4 sequence: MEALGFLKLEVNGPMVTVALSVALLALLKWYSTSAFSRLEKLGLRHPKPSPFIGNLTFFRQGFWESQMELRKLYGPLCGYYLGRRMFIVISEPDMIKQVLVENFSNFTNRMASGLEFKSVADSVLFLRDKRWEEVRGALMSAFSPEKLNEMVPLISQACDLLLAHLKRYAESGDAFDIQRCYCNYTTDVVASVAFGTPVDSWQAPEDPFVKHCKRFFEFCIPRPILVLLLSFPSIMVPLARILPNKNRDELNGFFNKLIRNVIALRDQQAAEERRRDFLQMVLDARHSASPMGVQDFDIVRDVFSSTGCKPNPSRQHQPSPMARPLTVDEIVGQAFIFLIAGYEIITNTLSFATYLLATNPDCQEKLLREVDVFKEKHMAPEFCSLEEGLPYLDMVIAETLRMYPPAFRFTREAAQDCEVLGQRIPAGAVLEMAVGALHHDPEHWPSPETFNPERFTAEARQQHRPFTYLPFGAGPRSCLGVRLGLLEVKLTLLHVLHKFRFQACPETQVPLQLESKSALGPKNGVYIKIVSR

DECR2 (human) = molecular target: T5, DECR2 (human) (UniProt Q9NUI1)
T5 sequence: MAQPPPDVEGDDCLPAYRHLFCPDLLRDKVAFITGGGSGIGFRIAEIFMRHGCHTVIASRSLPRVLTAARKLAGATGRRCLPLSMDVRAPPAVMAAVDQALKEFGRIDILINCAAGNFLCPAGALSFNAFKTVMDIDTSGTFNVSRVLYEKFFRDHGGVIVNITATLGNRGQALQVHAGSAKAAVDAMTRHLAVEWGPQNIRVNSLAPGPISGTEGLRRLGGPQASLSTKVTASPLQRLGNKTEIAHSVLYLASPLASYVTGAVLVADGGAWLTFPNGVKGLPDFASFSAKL

CTBP2 (human) = CTBP2 (human) (UniProt P56545)

binding (CSRP1 (human)): binds | binding (QARS (human)): binds | binding (MIF (human)): binds | binding (TBXAS1 (human)): binds | binding (DECR2 (human)): binds | binding (CTBP2 (human)): binds
Substance: linear ubiquitin chain assembly complex (LUBAC), purified as HIS-tagged HOIP with the subunit HOIL-1, biotin-labelled (from UniProt Q96EP0 1-1072; Q9BYM8 1-510)
